Some of these results come from one statement about several compounds together.
Assays:
[1] = system: Puccinia recondita; experiment: Greenhouse: preventative control of brown rust on wheat caused by Puccinia recondita (Puccrt P1), G1; type: in vivo; details: 150 ppm sprayed one day before inoculation; wheat seedlings; untreated plants 90% infected
[2] = system: Botrytis cinerea; experiment: Microtiterplate test against grey mold Botrytis cinerea (Botrci), M1 / C1; type: cell-based; details: 31 ppm; 405 nm, 7 days after inoculation; active compound-free control = 100%
[3] = system: Pyricularia oryzae; type: cell-based; details: 31 ppm; 405 nm, 7 days after inoculation; active compound-free control = 100%
[4] = system: Septoria tritici; experiment: Microtiterplate test against leaf blotch on wheat caused by Septoria tritici (Septtr), M3 / C4; type: cell-based; details: 31 ppm; 405 nm, 7 days after inoculation; active compound-free control = 100%

Row | Compound | infection (% diseased leaf area) [1] | growth (relative growth in % of the pathogen) [2] [%] | growth (relative growth in % of the pathogen) [3] [%] | growth (relative growth in % of the pathogen) [4] [%]
1 | Cc1cc(Oc2ccc(Cl)cc2)ccc1C(O)(Cn1cncn1)C(F)(F)F (stereo not shown) [Compound I-5, 2-[4-(4-chlorophenoxy)-2-methyl-phenyl]-1,1,1-trifluoro-3-(1,2,4-triazol-1-yl)propan-2-ol] | less than or equal to 10% | – | – | –
2 | Cc1cc(Oc2ccc(Cl)cc2)ccc1C(C)(O)Cn1cncn1 (stereo not shown) [Compound I-4, 2-[4-(4-chlorophenoxy)-2-methyl-phenyl]-1-(1,2,4-triazol-1-yl)propan-2-ol] | less than or equal to 10% | ≤ 2 | ≤ 1 | ≤ 2
3 | COC(C)(Cn1cncn1)c1ccc(Oc2ccc(Cl)cc2)cc1C#N (stereo not shown) [Compound I-3, 5-(4-chlorophenoxy)-2-[1-methoxy-1-methyl-2-(1,2,4-triazol-1-yl)ethyl]benzonitrile] | less than or equal to 10% | ≤ 2 | ≤ 1 | ≤ 2
4 | COc1cc(Oc2ccc(Cl)cc2)ccc1C(O)Cn1cncn1 (stereo not shown) [Compound I-1, 1-[4-(4-chlorophenoxy)-2-methoxy-phenyl]-2-(1,2,4-triazol-1-yl)ethanol] | less than or equal to 10% | ≤ 2 | – | ≤ 2
5 | COc1cc(Oc2ccc(Cl)cc2)ccc1C(C)(O)Cn1cncn1 (stereo not shown) [Compound I-2, 2-[4-(4-chlorophenoxy)-2-methoxy-phenyl]-1-(1,2,4-triazol-1-yl)propan-2-ol] | less than or equal to 10% | ≤ 2 | ≤ 1 | ≤ 2
